# From patent publication US12433510B2, “Methods and systems for improved collection of interstitial fluid” (Georgia Tech Research Corporation, priority 2017, dated 2025)
# Experiment: High-resolution metabolomics (LC-MS): prevalence of biomarkers in plasma, ISF and suction blister fluid
# [1] = biomarkers uniquely or predominately in ISF, 20 matched samples
# [2] = biomarkers uniquely or predominately in ISF, 20 matched samples, SBF
# [3] = biomarkers uniquely or predominately in ISF, 20 matched samples, plasma
# [4] = prevalence among 20 samples, plasma from venipuncture
# [5] = prevalence among 20 samples, suction blister fluid
# [6] = selected clinically relevant biomarkers, 20 matched samples
# [7] = selected clinically relevant biomarkers, 20 matched samples, SBF
# [8] = selected clinically relevant biomarkers, 20 matched samples, plasma
Compound,"Prevalence of biomarker, ISF [1] [%]","Prevalence of biomarker, SBF [2] [%]","Prevalence of biomarker, Plasma [3] [%]","Prevalence of biomarker, Plasma [4] [%]","Prevalence of biomarker, SBF [5] [%]","Prevalence of biomarker, ISF [6] [%]","Prevalence of biomarker, SBF [7] [%]","Prevalence of biomarker, Plasma [8] [%]"
OC[C@H]1O[C@@H](n2cnc3c(O)ncnc32)[C@H](O)[C@@H]1O [Inosine],80,100,5,5,100,,,
Glycogen,100,60,10,,,,,
O=C1O[C@@H]([C@H](O)CO)[C@@H](O)[C@H]1O [Gulonolactone],,,,0,10,,,
C=C1CC[C@H](O)C/C1=C/C=C1\CCC[C@]2(C)[C@@H]([C@H](C)/C=C/[C@H](C)C(C)C)CC[C@@H]12 [Ergocalciferol],,,,5,0,,,
"OC1CCCCC1O (stereo not drawn) [Cyclohexane-1,2-diol]",,,,5,10,,,
NC(N)=O [Urea],,,,,,100,100,100
CCCCCCCCCCCCC/C=C/[C@@H](O)[C@@H](N)CO [Sphingosine],100,50,10,10,50,100,50,10
Cc1c(O)cc2c(c1C)O[C@](C)(CCC[C@H](C)CCC[C@H](C)CCCC(C)C)CC2 [Gamma Tocopherol],100,0,5,,,,,
O=C(O)CCCC/C=C\C[C@@H](O)/C=C/C=C/C=C\[C@@H](O)CCCC(=O)O [20-COOH-Leukotriene B4],55,5,5,5,5,,,
CCCCCCCCCCCCCCCCCC(=O)O [Stearic acid],,,,,,100,15,75
